3 substances from paper PMC6131194 can be followed below.

This assay has as its target T1, RiCRN1ΔSP (RiCRN1 without signal peptide) (R. irregularis).
T1 sequence: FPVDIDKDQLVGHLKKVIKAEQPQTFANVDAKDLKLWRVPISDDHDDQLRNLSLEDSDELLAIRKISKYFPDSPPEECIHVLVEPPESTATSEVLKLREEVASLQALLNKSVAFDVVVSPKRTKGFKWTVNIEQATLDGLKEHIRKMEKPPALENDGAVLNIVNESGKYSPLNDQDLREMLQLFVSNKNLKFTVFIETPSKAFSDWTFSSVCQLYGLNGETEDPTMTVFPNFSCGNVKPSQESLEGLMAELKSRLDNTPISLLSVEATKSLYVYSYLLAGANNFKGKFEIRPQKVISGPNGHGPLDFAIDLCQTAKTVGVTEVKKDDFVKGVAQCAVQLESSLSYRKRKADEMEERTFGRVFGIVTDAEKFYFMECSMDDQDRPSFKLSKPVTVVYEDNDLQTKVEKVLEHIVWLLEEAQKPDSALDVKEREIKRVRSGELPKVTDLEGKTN
Briefly: two-hybrid; bait (pGBKT7) and prey (pGADT7) vectors co-transformed in S. cerevisiae AH109; interaction tested on SD medium lacking leucine, tryptophan, histidine and adenine; growth validated after 5 days at 30°C.

No constants are given. Whether binding was seen depends on the method and setting.

As for “MtSR45 (M. truncatula (from the prefix Mt))”, the binding result was “no binding”.

As for “MtU2AF^35b (M. truncatula (from the prefix Mt))”, the binding result was “no binding”.

For “MtU1-70K (M. truncatula (from the prefix Mt))”, the binding result is listed as “no binding”.
